Binding data for one molecule are collected here from publication PMC8683613.

Results are given in words; binding and its absence hold for the method and conditions named.

The test addresses pyruvate formate-lyase activating enzyme (PFL-AE) (E. coli) (UniProt P0A9N4). Description: SEC; clarified lysate loaded on HiLoad 16/60 Superdex 75 prep grade, anaerobic; 50 mM Tris pH 7.5, 100 mM NaCl, 1 mM DTT.

B1: pyruvate formate-lyase activating enzyme (PFL-AE) (enzyme, UniProt P0A9N4 2-246)
chain: SVIGRIHSFESCGTVDGPGIRFITFFQGCLMRCLYCHNRDTWDTHGGKEVTVEDLMKEVVTYRHFMNASGGGVTASGGEAILQAEFVRDWFRACKKEGIHTCLDTNGFVRRYDPVIDELLEVTDLVMLDLKQMNDEIHQNLVGVSNHRTLEFAKYLANKNVKVWIRYVVVPGWSDDDDSAHRLGEFTRDMGNVEKIELLPYHELGKHKWVAMGEEYKLDGVKPPKKETMERVKGILEQYGHKVMF
Consider B1, for which the binding entry is given as “no binding”.
